Results: the supplement of paper PMC3334620
Whole data set: some 33,000 sequences, median “E-score (-0.5 to 0.5)” near -8e-05, cut for the highest 2% near 0.23. Some of the results follow.

biological target: T1, Nrg2 (UniProt P38082); test: PBM E-score (8-mer binding enrichment) (E-score (-0.5 to 0.5)); higher = stronger / more preferred TF binding; conditions: protein concentration: 100 nM; construct: GST-full length
T1 sequence: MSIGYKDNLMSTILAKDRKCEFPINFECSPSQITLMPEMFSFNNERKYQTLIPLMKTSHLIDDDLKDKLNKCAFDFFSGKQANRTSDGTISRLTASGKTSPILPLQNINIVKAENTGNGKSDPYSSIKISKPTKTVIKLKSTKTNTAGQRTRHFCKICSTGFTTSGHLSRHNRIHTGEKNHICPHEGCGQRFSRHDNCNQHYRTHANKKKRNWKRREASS
Procedure, shortened: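 Universal all-10-mer Agilent arrays, fresh or stripped once, were converted to double-stranded form by primer extension. GST-tagged yeast transcription factors from PURExpress in vitro transcription/translation, full-length or DNA-binding domain only, were applied at about 100-200 nM and detected with fluorescent anti-GST. After masliner normalisation, the Universal PBM Analysis Suite scored each ungapped eight-base word together with its reverse complement by E-score.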

| Sequence | PBM E-score |
| --- | --- |
| ACATATGA | 0.0473 |
| GTCGTCCA | 0.146 |
| AAGACCGG | -0.155 |
| CGGTGAAC | -0.0678 |
| CGATATAG | 0.14 |
| ACGTCACA | 0.0772 |
| CAGCTAGG | -0.0907 |
| CACGTCTG | 0.0439 |
| GCGGAACA | -0.00653 |
| GGGCGACC | -0.00032 |
| AAATACAC | 0.0316 |
| CAACTGCA | 0.0432 |
| AGCGCCCC | -0.166 |
| CTTTGTTA | 0.109 |
| CACGCTCG | -0.0978 |
| AGTGCAAA | 0.258 |
| ACCCGTCA | -0.0303 |
| CGGGACCC | -0.0126 |
| ATTATGAC | -0.0447 |
| CTTGAGGA | -0.121 |
| CACGATCG | 0.118 |
| AATGGGAC | 0.15 |
| CAGGTGCA | 0.124 |
| GTGAGCAC | -0.228 |

| Sequence | PBM E-score |
| --- | --- |
| CAAATCGG | 0.0907 |
| CAACATAA | 0.203 |
| GTTGATTA | 0.144 |
| CAGCACAA | 0.0492 |
| ACGGGGCT | -0.146 |
| CTAATCAG | 0.0703 |
| TATCTACA | 0.127 |
| CCGCCATC | -0.163 |
| GAGGTAAC | 0.047 |
| ACAAGAAC | 0.262 |
| CGCGGCCA | 0.0256 |
| AATGGCTG | -0.0152 |
| AGAACTTG | 0.0373 |
| CATCCTCC | -0.175 |
| GTAGCTTA | 0.195 |
| ATCATTAC | 0.149 |
| ATACTGTG | -0.0451 |
| ATTACTCG | 0.178 |
| CGTGGCTC | -0.274 |
| ATGTGAGA | 0.103 |
| ATAGTCGC | 0.0565 |
| CAACCCTA | 0.0574 |
| CCTCGCCC | 0.016 |
| ACCACTCA | 0.0365 |

5 records drawn at random from the list so far, as already listed:

| Sequence | PBM E-score |
| --- | --- |
| CGGGACCC | -0.0126 |
| ATACTGTG | -0.0451 |
| AGCGCCCC | -0.166 |
| AATGGGAC | 0.15 |
| CAGCACAA | 0.0492 |

Later entries

| Sequence | PBM E-score |
| --- | --- |
| CCGCATTC | -0.0499 |
| AAGCCAGC | -0.0708 |
| CCGGCCTA | 0.0164 |
| CTTCTATC | -0.0682 |
| GCACATGC | 0.0425 |
| GATTAGAC | 0.0407 |
| AGCGGACC | -0.036 |
| CCGGATTA | 0.0135 |
| GGTGCTAC | -0.128 |
| CGTACATC | -0.0477 |
| ATGAGGGG | 0.0427 |
| ATACTCAC | -0.00276 |
| GAGTAAGC | -0.0798 |
| ACACATCG | -0.0659 |
| CATAAACG | -0.0278 |
| ATTGCTTA | 0.0123 |
| ACCAGAAT | 0.00151 |
| ATAACGGC | 0.157 |
| CTGTCGCA | 0.0104 |
| ATTTGCAC | 0.0924 |
| CAGCTTAG | -0.0439 |
| GCCCGCCA | -0.0582 |
| CCACAGCG | -0.0779 |
| GGCGTCAA | 0.0658 |

| Sequence | PBM E-score |
| --- | --- |
| ACCCGCAT | 0.191 |
| ATTTTGTG | 0.0327 |
| CCTTGATC | 0.17 |
| CGCCCCAG | 0.0362 |
| ACATGAAG | -0.0531 |
| CATCATTA | 0.231 |
| CACAATGG | 0.16 |
| AGCATATA | 0.0646 |
| AGCGGCGG | 0.126 |
| GAGCATGC | -0.00298 |
| TTATATAA | 0.192 |
| GGGTCAGA | -0.087 |
| CTCTACAA | -0.0203 |
| AGATACAA | 0.162 |
| CACCGAGA | 0.032 |
| AAGCGGGA | -0.0677 |
| ACAGCGGA | 0.0846 |
| CCAACTGC | 0.0917 |
| AACCGCAC | 0.108 |
| AGTCGCGG | -0.183 |
| CACTAGAG | 0.00401 |
| TGCGGAAA | 0.0306 |
